Source: article PMC10828586
Positions count from the first letter of the chain named. These are yes or no findings as the source states them, for the method shown. In cells and extracts the contact can be indirect. Some results given as binding are weak or reduced against the parent protein; the word gives no strength.

Chains of the proteins cited; added tags and fusions are not shown.
UniProt Q9DBL9: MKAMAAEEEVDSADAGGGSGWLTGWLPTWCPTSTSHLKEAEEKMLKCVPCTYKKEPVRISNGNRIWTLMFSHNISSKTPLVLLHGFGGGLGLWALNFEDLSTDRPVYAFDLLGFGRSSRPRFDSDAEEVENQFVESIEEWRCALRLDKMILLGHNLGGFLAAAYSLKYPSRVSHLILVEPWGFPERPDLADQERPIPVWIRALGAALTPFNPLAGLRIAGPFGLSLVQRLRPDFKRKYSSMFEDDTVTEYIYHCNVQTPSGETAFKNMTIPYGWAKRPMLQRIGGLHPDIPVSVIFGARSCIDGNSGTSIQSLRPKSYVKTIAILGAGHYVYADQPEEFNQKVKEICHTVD
UniProt P00722: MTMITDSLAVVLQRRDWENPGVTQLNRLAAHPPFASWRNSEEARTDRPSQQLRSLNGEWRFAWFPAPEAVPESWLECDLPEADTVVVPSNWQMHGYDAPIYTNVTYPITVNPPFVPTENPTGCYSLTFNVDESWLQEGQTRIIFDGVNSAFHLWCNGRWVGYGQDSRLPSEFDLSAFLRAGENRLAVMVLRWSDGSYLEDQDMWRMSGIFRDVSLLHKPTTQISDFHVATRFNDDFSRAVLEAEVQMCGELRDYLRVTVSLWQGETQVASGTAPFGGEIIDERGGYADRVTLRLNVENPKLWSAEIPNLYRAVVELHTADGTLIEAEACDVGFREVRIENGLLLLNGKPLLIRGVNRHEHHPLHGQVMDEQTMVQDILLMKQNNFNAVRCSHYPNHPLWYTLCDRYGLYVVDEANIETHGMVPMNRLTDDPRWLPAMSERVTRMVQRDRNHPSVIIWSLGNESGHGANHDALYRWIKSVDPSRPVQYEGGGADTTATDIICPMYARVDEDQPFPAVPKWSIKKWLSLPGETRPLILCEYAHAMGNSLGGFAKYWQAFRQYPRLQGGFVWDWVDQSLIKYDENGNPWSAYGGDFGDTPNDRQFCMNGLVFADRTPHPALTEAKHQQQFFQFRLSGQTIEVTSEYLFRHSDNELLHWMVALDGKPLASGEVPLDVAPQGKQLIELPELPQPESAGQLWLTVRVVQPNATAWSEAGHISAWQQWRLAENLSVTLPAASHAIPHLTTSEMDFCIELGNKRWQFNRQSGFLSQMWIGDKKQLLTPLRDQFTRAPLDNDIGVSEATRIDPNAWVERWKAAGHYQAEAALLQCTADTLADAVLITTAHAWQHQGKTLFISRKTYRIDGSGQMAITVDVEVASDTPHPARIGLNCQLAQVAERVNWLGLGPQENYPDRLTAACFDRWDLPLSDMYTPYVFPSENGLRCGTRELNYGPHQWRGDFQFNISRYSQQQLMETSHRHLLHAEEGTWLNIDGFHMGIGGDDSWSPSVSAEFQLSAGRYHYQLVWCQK

Columns and labels:
FLAG-mCGI-58 (mouse) = FLAG-mCGI-58 (mouse) (UniProt Q9DBL9); experiment: co-IP; HEK293T cotransfected with FLAG-mCGI-58 and Xpress-mATGL variants; lysis in 50 mM Tris-HCl pH 7.4, 150 mM NaCl, 1% NP-40, 1 mM EDTA; 2 mg lysate on Anti-FLAG M2 affinity gel, 4°C, 3 h; immunoblot with anti-Xpress and anti-FLAG
[1] = target: T1, smt3-mATGL288-StrepII I212S (Mus musculus) (UniProt Q8BJ56); experiment: pull-down; copurification: both proteins coexpressed in E. coli ArcticExpress (DE3) from polycistronic pST44; cleared lysate loaded on a StrepTrap HP column that holds the StrepII-tagged mATGL288; washes incl. 500 mM KCl; eluted with 10 mM desthiobiotin; fractions immunoblotted with anti-His (mCGI-58) and anti-Strep (mATGL288)
T1 sequence: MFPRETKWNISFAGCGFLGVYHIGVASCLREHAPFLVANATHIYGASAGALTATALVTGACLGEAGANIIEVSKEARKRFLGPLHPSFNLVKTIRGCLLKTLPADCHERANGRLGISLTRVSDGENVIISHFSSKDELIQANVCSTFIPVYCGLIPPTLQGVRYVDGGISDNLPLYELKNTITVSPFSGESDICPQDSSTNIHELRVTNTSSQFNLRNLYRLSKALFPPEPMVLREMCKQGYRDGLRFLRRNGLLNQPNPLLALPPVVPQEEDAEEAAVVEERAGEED

[2] = target: T2, smt3-mATGL288-StrepII (mouse adipose triglyceride lipase truncated after residue 288), WT (Mus musculus) (UniProt Q8BJ56); experiment: as above
T2 sequence: T1 sequence with S212I

[3] = target: T3, smt3-mATGL288-StrepII N209A (Mus musculus) (UniProt Q8BJ56); experiment: as above
T3 sequence: T1 sequence with N209A, S212I

[4] = target: T4, smt3-mATGL288-StrepII N215A (Mus musculus) (UniProt Q8BJ56); experiment: as above
T4 sequence: T1 sequence with S212I, N215A

[5] = target: T5, smt3-mATGL288-StrepII I212A (Mus musculus) (UniProt Q8BJ56); experiment: as above
T5 sequence: T1 sequence with S212A

[6] = target: T6, smt3-mATGL288-StrepII N209A/I212A/N215A (Mus musculus) (UniProt Q8BJ56); experiment: as above
T6 sequence: T1 sequence with N209A, S212A, N215A

Row | Substance | binding (FLAG-mCGI-58 (mouse)) | binding [1] | binding [2] | binding [3] | binding [4] | binding [5] | binding [6]
1 | Xpress-LacZ (from UniProt P00722 1-1024) | no binding |  |  |  |  |  | 
2 | smt3-mCGI-58-His6 (mouse comparative gene identification-58) (from UniProt Q9DBL9 1-351) |  | binds | binds | binds | binds | binds | binds
